Drawing on paper PMC7819943, “Rice protein-binding microarrays: a tool to detect cis-acting elements near promoter regions in rice”, this text covers binding signal for 54 sequences.

By UniProt entry, the sequences of proteins in these tests, tags left out.
UniProt Q0JBA9, entry or part of it: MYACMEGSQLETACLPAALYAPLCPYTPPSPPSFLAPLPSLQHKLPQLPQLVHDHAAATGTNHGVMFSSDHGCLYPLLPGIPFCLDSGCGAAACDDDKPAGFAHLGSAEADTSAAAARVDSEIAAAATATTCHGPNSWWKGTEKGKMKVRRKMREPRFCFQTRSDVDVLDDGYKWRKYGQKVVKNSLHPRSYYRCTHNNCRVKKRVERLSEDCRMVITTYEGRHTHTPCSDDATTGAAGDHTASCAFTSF

The other results are listed elsewhere or left out.

For this test, the target named is OsWRKY34 (Oryza sativa, UniProt Q0JBA9 1-250). Briefly: protein-binding microarray (RPBM); PBS, 2% BSA, 51.3 ng/ul salmon testes DNA, 50 uM zinc acetate, 200 nM TF, 25 C, 1 h; high values mean tight binding. The following applies: protein: recombinant; tags: N-terminal polyhistidine and DsRed monomer fusion (pET32a); label: CyDye5-dUTP incorporated in the synthesized complementary strand; 3' TTTTT single-stranded linker to array surface; dsDNA, one strand shown. In a few lines: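 A custom Agilent array was converted to double-stranded form by primer extension with Cy5-dUTP and blocked with 2% BSA. Protein at 200 nM in PBS with 2% BSA, salmon testes DNA and 50 µM zinc acetate was applied for 1 h at 25 °C, followed by washing. The proteins were polyhistidine–DsRed N-terminal fusions of transcription factors, expressed in E. coli BL21-CodonPlus and Ni–NTA-purified. The binding signal is per-feature fluorescence intensity (arbitrary units) from an Axon 4000B scanner.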
On to “CCACCTATCATGCACGCGGCATCTGTTCGGCCGGCCCAACCGGAGTCACCTAGTGCAG”, for which the binding signal was 9750 fluorescence intensity (a.u.). As for “GTCCCGCGTCGCGCTGTCCAGGCTCTCGCTGATCCCTCGCCGGAGTCACCTAGTGCAG”, the figure is 10400 fluorescence intensity (a.u.); as for “CATTATTTTCCAATGCTATTGGGTGGGTTGATTTGATAGACGGAGTCACCTAGTGCAG”, 13200 fluorescence intensity (a.u.); as for “TCAAGCAGGCTCGAACTCCGTACTGATTTGTTCTTTGATTCGGAGTCACCTAGTGCAG”, 10900 fluorescence intensity (a.u.). Take “ATCTCTCCCTTTTCTTTTGAAATTTTGAATATCTATCCCACGGAGTCACCTAGTGCAG”: the binding signal was 8960 fluorescence intensity (a.u.). Consider “CTCCGCCCATTTCTCCTCTCCACCTGCGATCCATCCGCGCCGGAGTCACCTAGTGCAG”, for which the binding signal was 9270 fluorescence intensity (a.u.). As for “CACCGAGCCGCTGACCTTATCTATCCATCCACCCCACACACGGAGTCACCTAGTGCAG”, the binding signal was 8980 fluorescence intensity (a.u.). As for “CCATCGCCCACGCCCTCGCGCGCACCCGGAACGCGTGACCCGGAGTCACCTAGTGCAG”, the figure is 10600 fluorescence intensity (a.u.); as for “AGCTCGGAGGTCGGAGGGGAGGGGTGGTACGACTACAATGCGGAGTCACCTAGTGCAG”, 13900 fluorescence intensity (a.u.); as for “AGGTAATCATATTGTTGTTATTCGTGGATGGGGTGGGCTCCGGAGTCACCTAGTGCAG”, 16400 fluorescence intensity (a.u.). As for “TAGGTCTGCTTCAGAGATGGGGTTAGGGTTAGATTTGTTCCGGAGTCACCTAGTGCAG”, the binding signal is 14000 fluorescence intensity (a.u.). Consider “TGCTCGATAGCCGCTTCCCCGTCGCGCCCTCCAGGTTTTACGGAGTCACCTAGTGCAG”, for which the binding signal was 10700 fluorescence intensity (a.u.). Regarding “TGAATCCTAGCGAGAGTTTTTGTCCGCTTCCATCTCTCTCCGGAGTCACCTAGTGCAG”, the binding signal is 9000 fluorescence intensity (a.u.).

Regarding “AAGCGTGACATCCCTAATCGGCATTTGATCAAGCAACTCACGGAGTCACCTAGTGCAG”, the binding signal was 8180 fluorescence intensity (a.u.). In the case of “AATTTTCTTAAAATTTGAGGTTTAGTTTGACTTTCTTTTTCGGAGTCACCTAGTGCAG”, the binding signal is 9400 fluorescence intensity (a.u.). As for “GATTGCTGTTTCACTTACAAATGGATCCCATGTGTCTTTTCGGAGTCACCTAGTGCAG”, the figure is 10000 fluorescence intensity (a.u.); as for “CTTGTTCTTTCGTTGATGTGTTCTTGGTTTTGAGTTCTCTCGGAGTCACCTAGTGCAG”, 12500 fluorescence intensity (a.u.); as for “ATTCTCCTTCGCCCACGATTTTCTTCGTCTTCTTCGTCTCCGGAGTCACCTAGTGCAG”, 9760 fluorescence intensity (a.u.). The figure for “CGTAAAAAGGTTCCTATATAGTACTCTATCAGTTCTTCTTCGGAGTCACCTAGTGCAG” is 8980 fluorescence intensity (a.u.); for “CCCATTTTACATCCACCACCCTAATCCACATCTCTATTTACGGAGTCACCTAGTGCAG” it is 8070 fluorescence intensity (a.u.). The figure for “TCCTGTTTCTTTCTCCCCTTTCTCTGTTTTTTGGCAGTTTCGGAGTCACCTAGTGCAG” is 12700 fluorescence intensity (a.u.). Consider “AAATAACATCACAGTTCGCTATCGTCATCCTATTCCTAGGCGGAGTCACCTAGTGCAG”, for which the binding signal is 8290 fluorescence intensity (a.u.).

In the case of “GCTAATTTGACTCGGTTTTCATCTGACGTGGCATTGACGTCGGAGTCACCTAGTGCAG”, the binding signal is 9180 fluorescence intensity (a.u.). Turning to “TGGTAGGTATCAAGCATATATATTCTTCTCTTTCCAATTTCGGAGTCACCTAGTGCAG”, the binding signal was 9850 fluorescence intensity (a.u.). With “GACGTGTCCTTTTCTTTTTTTTCTTCTTTTCTTTTTTTTTCGGAGTCACCTAGTGCAG”, the binding signal is 8510 fluorescence intensity (a.u.). As to “GGTGTTGTCATTGGTCAGGTGAGTTGTAGCTTGAATTGAACGGAGTCACCTAGTGCAG”, the binding signal is 10300 fluorescence intensity (a.u.). As for “TCCGTACAACCGCTCATCCTAGCCGAACGTGTATGACCTCCGGAGTCACCTAGTGCAG”, the figure is 10600 fluorescence intensity (a.u.); as for “GTTGTTGCGGGAGGGAATTGTGTTGTTCTGTTGTAGTAGTCGGAGTCACCTAGTGCAG”, 15500 fluorescence intensity (a.u.); as for “ATTCAACTTCCTTAGTTCCTATCTTCTTTATTTTTCAGAACGGAGTCACCTAGTGCAG”, 8730 fluorescence intensity (a.u.). The figure for “CCATGCCATCCGTTTTAGGATAACTGTACACGATACATCACGGAGTCACCTAGTGCAG” is 8960 fluorescence intensity (a.u.). As to “TTGTTGGGTGGGGACGTGGGGTGGGGTTCATGGAGTGGTTCGGAGTCACCTAGTGCAG”, the binding signal was 24800 fluorescence intensity (a.u.). The figure for “GCGGCCGGCGGCGAGGTCGCGGACGGGGAGGTGGGGCGCGCGGAGTCACCTAGTGCAG” is 10000 fluorescence intensity (a.u.). As for “ACGCGGCCGCCGAGCTGGACTCCTCATCCCCAGCTTCGCTCGGAGTCACCTAGTGCAG”, the figure is 8600 fluorescence intensity (a.u.); as for “GTTGTGTTGTTGTTCATTATCACTTTTAGGTATTGTCATGCGGAGTCACCTAGTGCAG”, 9080 fluorescence intensity (a.u.); as for “CGCCATGATTTTCGTTCATCCATAGCTTCTGCAGCGCCGGCGGAGTCACCTAGTGCAG”, 11700 fluorescence intensity (a.u.). The figure for “GTTGTTGTTGTTGGTTTGGTTTGCGAGTCTGCAACCAATGCGGAGTCACCTAGTGCAG” is 9020 fluorescence intensity (a.u.). Regarding “CTTTTTGTCAATTGTCCCTTTCAACTTTTCTCCCTTCTCCCGGAGTCACCTAGTGCAG”, the binding signal was 8320 fluorescence intensity (a.u.). For “TTGCTTTCAGTGGCTTTCCTTTACATTTCCAACACTGAGCCGGAGTCACCTAGTGCAG”, the binding signal is 9530 fluorescence intensity (a.u.). As for “CGCCTCGCGGGAGACCACACATTAATTCCTCGCGCCCCATCGGAGTCACCTAGTGCAG”, the figure is 9600 fluorescence intensity (a.u.); as for “ACTCTCTCCGCCGCCGGCCGCCGAATCTCCGGCGCCGATGCGGAGTCACCTAGTGCAG”, 8220 fluorescence intensity (a.u.). Turning to “CGTAGGATTCTAAAGGGGTTGTGGTGATTTGGGACCTAGACGGAGTCACCTAGTGCAG”, the binding signal is 8080 fluorescence intensity (a.u.). The figure for “CCCTTGTCATCGAAGAACGGGATGGCGTGGTGGGTATAGTCGGAGTCACCTAGTGCAG” is 8470 fluorescence intensity (a.u.); for “GTACCGTCACTCGCCGGCGTTCAGGCTGACCATTGAACCCCGGAGTCACCTAGTGCAG” it is 8370 fluorescence intensity (a.u.). As for “CACCAACGTCACATTTTGTCTTGTTTCTTTTTTAAAAAAACGGAGTCACCTAGTGCAG”, the figure is 8650 fluorescence intensity (a.u.).

For the sequence “AACGCCATGTTTTACGTTTTCCCGCGACTTTGTTGGCGCGCGGAGTCACCTAGTGCAG”, the binding signal is 8210 fluorescence intensity (a.u.). For the sequence “CCTCTCAATTTTCCAATTTCATTTGTTACTTTTTTGTCACCGGAGTCACCTAGTGCAG”, the binding signal is 9580 fluorescence intensity (a.u.). “CCCCATCACCAGCATTGGCTCGTTCAACTTCCCCAGCTACCGGAGTCACCTAGTGCAG”: the binding signal is 10000 fluorescence intensity (a.u.).

As for “CCCCGACGACCGGTCACTGCAATAACTCGCCATCACCTAGCGGAGTCACCTAGTGCAG”, the binding signal is 8840 fluorescence intensity (a.u.). Take “ACATCTCGCGTTGCGCCGCGCGCTTCTCTCCCACTCCACTCGGAGTCACCTAGTGCAG”: the binding signal was 12400 fluorescence intensity (a.u.).

For “ACTATCTATCTCTATTCACAGTCTTGTAGTTATTAAGTACCGGAGTCACCTAGTGCAG”, the binding signal was 9960 fluorescence intensity (a.u.). Turning to “CCGGCCCGTCTTGGCACGGCCCATTTGGCCAGGTCTACCTCGGAGTCACCTAGTGCAG”, the binding signal was 8050 fluorescence intensity (a.u.). For the sequence “AACAGTGTTCGGTTTGGATCCGCGCGCCGTCTGAGTTTTCCGGAGTCACCTAGTGCAG”, the binding signal is 8810 fluorescence intensity (a.u.).

Consider “GGAGGTCGTGGGAACAAATTCTTTCATATATGTGTGTGCTCGGAGTCACCTAGTGCAG”, for which the binding signal is 9850 fluorescence intensity (a.u.). As for “CATCGCCATCGCCATCGCCAATCACACTCTCTGTTAGCTCCGGAGTCACCTAGTGCAG”, the figure is 8160 fluorescence intensity (a.u.).
